Data taken from publication PMC10866687.
Results are given in words; binding and its absence hold for the method and conditions named. For some of these results: In cells and extracts the contact can be indirect. Some binding calls cover weakened binding; strength is not graded here.

Protein sequences, listed by entry. Tags and fused reporters are not part of them. Lines headed by an entry give the natural chain unless they say otherwise; changes in a name come on top. Residues count along the entry.
UniProt Q60598: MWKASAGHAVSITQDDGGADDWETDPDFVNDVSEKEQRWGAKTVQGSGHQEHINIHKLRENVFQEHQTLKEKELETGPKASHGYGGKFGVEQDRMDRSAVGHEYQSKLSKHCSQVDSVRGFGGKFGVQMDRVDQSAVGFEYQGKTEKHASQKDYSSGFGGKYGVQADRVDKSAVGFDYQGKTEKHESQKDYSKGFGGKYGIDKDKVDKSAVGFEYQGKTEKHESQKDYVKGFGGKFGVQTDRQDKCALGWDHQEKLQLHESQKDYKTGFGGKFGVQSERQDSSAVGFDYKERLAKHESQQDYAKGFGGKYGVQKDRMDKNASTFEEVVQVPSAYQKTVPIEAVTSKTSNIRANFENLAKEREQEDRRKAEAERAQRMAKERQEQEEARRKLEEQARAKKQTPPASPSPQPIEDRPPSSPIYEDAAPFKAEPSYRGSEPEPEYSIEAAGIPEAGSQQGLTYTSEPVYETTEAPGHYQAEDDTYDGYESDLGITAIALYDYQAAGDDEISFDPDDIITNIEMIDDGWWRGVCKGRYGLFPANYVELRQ
GST-cortactin SH3 domain fusion protein: residues 488-546 of Q60598
UniProt P46821, residues 2207-2468: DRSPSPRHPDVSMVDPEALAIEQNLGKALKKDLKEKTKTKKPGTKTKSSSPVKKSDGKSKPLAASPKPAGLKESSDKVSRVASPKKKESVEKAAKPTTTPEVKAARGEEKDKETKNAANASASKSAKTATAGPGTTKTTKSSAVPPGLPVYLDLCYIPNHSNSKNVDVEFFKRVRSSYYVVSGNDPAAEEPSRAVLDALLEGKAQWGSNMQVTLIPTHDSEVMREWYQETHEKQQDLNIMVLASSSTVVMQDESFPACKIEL
UniProt Q14247: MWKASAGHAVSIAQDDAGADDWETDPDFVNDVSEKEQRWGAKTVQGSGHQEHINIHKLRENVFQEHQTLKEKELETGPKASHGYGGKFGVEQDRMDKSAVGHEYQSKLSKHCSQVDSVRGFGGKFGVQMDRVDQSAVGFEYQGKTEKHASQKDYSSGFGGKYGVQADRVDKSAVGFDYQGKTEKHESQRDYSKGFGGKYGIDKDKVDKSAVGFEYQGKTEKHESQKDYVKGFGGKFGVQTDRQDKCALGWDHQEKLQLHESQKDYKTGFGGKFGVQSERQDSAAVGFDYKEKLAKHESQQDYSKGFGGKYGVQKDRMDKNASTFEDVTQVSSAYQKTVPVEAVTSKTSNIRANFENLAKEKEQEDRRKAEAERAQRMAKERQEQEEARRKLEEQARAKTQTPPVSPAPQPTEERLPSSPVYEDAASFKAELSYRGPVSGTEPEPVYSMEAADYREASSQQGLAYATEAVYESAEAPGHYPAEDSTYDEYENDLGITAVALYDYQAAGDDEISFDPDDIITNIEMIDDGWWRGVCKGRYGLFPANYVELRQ

How the values were obtained:
[1] = biological target: GST-cortactin SH3 domain fusion protein (UniProt Q60598); assay: pull-down; GST- and His-tagged proteins mixed in 0.1% Triton X-100, 25 mM Tris-HCl pH 7.5, 150 mM NaCl, 1 mM EDTA, 4°C overnight; glutathione beads 30 min at 4°C; immunoblot; in Fig. S4 E two His-tagged proteins with one GST fusion; both purified
[2] = biological target: FLAG-MAP1B-LC1 (wild type) (not stated (human or rat cDNA cloned)) (UniProt P46821); assay: co-IP; FLAG-tagged bait on FLAG M2 beads from lysates of transiently transfected 293T cells (1% Triton X-100, 25 mM Tris-HCl pH 7.2, 150 mM NaCl, 1 mM EDTA), eluted with FLAG peptide, immunoblot; in some experiments cells treated with 1 uM latrunculin A and 10 ug/ml nocodazole for 30 min before lysis (interaction weakened); in Fig. S4 D three proteins co-expressed
[3] = biological target: endogenous cortactin (human (endogenous in MDA-MB-231)) (UniProt Q14247); assay: proximity ligation; Duolink PLA on paraformaldehyde-fixed MDA-MB-231 cells with anti-MAP1B-LC1 and anti-cortactin; in some experiments 1 uM latrunculin A and 10 ug/ml nocodazole for 30 min before fixation (proximity weakened)

Substance	binding [2]	further results
His-MAP1B-LC1 (from UniProt P46821 2207-2468) (domain or fragment)	–	binding [1]: binds
cortactin W525K (SH3 mut)-GFP (from UniProt Q60598 1-546)	no binding	–
cortactin-GFP (wild type), in 293T cells (from UniProt Q60598 1-546)	binds	–
endogenous MAP1B-LC1 (from UniProt P46821 2207-2468)	–	binding [3]: binds
